This note sets out measurements from PMC5435687 (Scientific Reports, 2017).

Several values for one entry are separate records, joined by “and”; a condition that tells them apart may be missing. Equal values may be shown once.

In this data set the test system is SH-SY5Y cells. In words: Co-localisation of Aβ with LysoTracker Deep Red (confocal, JACoP, Mander's coefficient). In kind it is cell-based, human. Conditions: 500 nM peptide 24 h, washed, additional 5 h, mean ± SD of 21 images, ~5 cells each, three samples.

For the substance “Aβ(1–40): Synthetic 40 residue amyloid-β peptide conjugated to HiLyte Fluor HF488 (or HF647) at the N-terminus, from Anaspec”, the “fraction of Aβ colocalising with Lysotracker Deep Red stained compartments (Mander's coefficient)” value was 90.8 ± 3.6% and > 90%.
